From patent US5554725 (dated 1996) come the findings set out here.

Data set [1] can be described thus: solution-phase peptide synthesis; diethyl phosphorocyanidate (DEPC), triethylamine. To be noted: whole synthesis, overall.
Data set [2] in a line: general procedure: solution-phase peptide synthesis; diethyl phosphorocyanidate (DEPC), triethylamine.

Regarding “(S)-Dov-(S)-Val-(S)-NMe-Val-(S)-Pro-(S)-Pro-(8)-Hiva-(S)-Dpy”, the isolated yield in data set [1] is on record as 11%. This substance yielded a step yield in data set [2] (coupling step) of 97%.

“(S)-Val-NMe-(S)-Val-(S)-Pro-(S)-Pro-(S)-Hiva-(S) -Dpy”: the step yield in data set [2] (late stage modification step) is listed as 96%.

Consider “Z-(S)-Val-NMe-(S)-Val-(S)-Pro-(S)-Pro-(S-Hiva-(S)-Dpy”, for which the step yield in data set [2] (coupling step) is given as 89%.
